# Results as given in PubChem BioAssay AID2685 (National Center for Advancing Translational Sciences (NCATS), 2010).
# The other results are listed elsewhere or left out. Shown are side measurements of this screen, not its main read-out; they come without a call. The list favours compounds with an active or inconclusive main result. The note in brackets gives the kind of curve behind each potency; many fits are weak.
# Test: qHTS Assay for Lipid Storage Modulators in Drosophila S3 Cells;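 on cell number change: cells counted by Cell Tracker Red CMTPX staining in the red channel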
# Settings: BODIPY lipid droplet fluorescence, 18-24 h; for cell number change: measured here: cell count max response, cells fed with added oleic acid
# Method in brief: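 Laser-scanning cytometry quantifies lipid droplet accumulation (500–530 nm total intensity; droplet/cell object ratio) in oleic acid-fed (400 uM added) Drosophila S3 cells treated with a concentration series. 20 uM Triacsin C defined 100% inhibition.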
# [1] = measured here: cell number channel AC50, cells fed with added oleic acid
# [2] = measured here: lipid fluorescence (Fed channel) AC50, cells fed with added oleic acid
SMILES,cell number change [%],AC50 [1],AC50 [2]
CC1=NN(c2ccccc2)C(=O)/C1=C\c1ccc(Br)s1,-39.3,"16.4 µM [falling, partial curve]","18.4 µM [falling, partial curve]"
CC(=O)c1c(C)[nH]c(C(=O)/C(C#N)=C/c2cccc(C)c2)c1C,13.4,,"6.51 µM [falling, single point]"
Cc1ccc(CSc2ccc3nnc(-c4cccnc4)n3n2)cc1,-20,,"0.0651 µM [rising, full curve, poor fit]"
COC(c1ccccc1)c1nnc(CCC(=O)NC2CCCCC2)o1 (centres undefined),-37.3,"7.31 µM [falling, partial curve, poor fit]","8.2 µM [falling, partial curve, poor fit]"
CCOC(=O)Cc1csc(SCC(=O)NC(C)C23CC4CC(CC(C4)C2)C3)n1 (centres undefined),,,"29.1 µM [falling, single point]"
O=C(O)CN(c1ccccc1)S(=O)(=O)c1cc(C(F)(F)F)cc(C(F)(F)F)c1,-29.3,,"29.1 µM [falling, single point]"
CN(CCC#N)C(=O)COC(=O)c1ccc2[nH]c3c(c2c1)CCCC3,-56.1,"10.3 µM [falling, partial curve, poor fit]","10.3 µM [falling, partial curve, poor fit]"
Cc1ccc(C(=O)CSc2nnc3c4ccccc4nc(C(C)(C)C)n23)cc1,28.6,,"2.59 µM [rising, partial curve, poor fit]"
COc1ccc(S(=O)(=O)N(C)CC(=O)NCCCn2ccnc2)cc1Cl,-12.8,"0.0651 µM [falling, full curve, poor fit]",
CC1CCc2c(c3ccccc3[nH]c2=O)O1 (centres undefined),84.4,"11.6 µM [rising, partial curve]",
CC(C)CC(=O)NC(=S)NNC(=O)c1ccc(NC(=O)C2CCCCC2)cc1,-7.93,,"29.1 µM [falling, single point]"
COc1cccc(CNc2nnnn2C)c1OC,11.7,,
O=C(/C=C/c1ccc(-c2ccccc2)cc1)NCc1cccnc1,-2.92,,"0.082 µM [falling, full curve, poor fit]"
CCC1CCCCN1CCCNC(=O)c1ccc2nc(N3CCCCC3)sc2c1 (centres undefined),5.03,"0.82 µM [rising, full curve, poor fit]",
COC(=O)c1c(NC(=O)CN(c2ccc(C)c(C)c2)S(C)(=O)=O)sc2c1CCCC2,-17.4,,"20.6 µM [falling, partial curve]"
Cc1cc(=O)[nH]c(N2CCN(C(c3ccccc3)c3ccccc3)CC2)n1,-6.15,,"0.651 µM [falling, full curve, poor fit]"
CCOc1ccccc1CN1C(=O)C2(OCCO2)c2ccccc21,17.6,,
Fc1ccc(C2=CSC3=NCCN23)cc1,-46.4,"29.1 µM [falling, single point]","29.1 µM [falling, single point]"
COCCNC(=O)c1onc(CSc2ccccc2F)c1C(=O)O,-1.12,,

SMILES,cell number change [%],AC50 [1],AC50 [2]
Cc1cccc(NC(=O)CSCC(=O)Nc2ccc(S(=O)(=O)N3CCCC3)cc2)c1,42.3,"5.8 µM [rising, partial curve]","2.06 µM [rising, partial curve]"
COC(=O)c1c(NC(=O)CN2C(=O)C(=O)N(C(C)C)C2=O)sc(C)c1C,17.5,,"11.6 µM [rising, single point]"
CC1CCN(S(=O)(=O)c2ccc(NC(=O)Cn3nnc(-c4ccccc4)n3)cc2)CC1,-54.2,"23.1 µM [falling, single point]","29.1 µM [falling, single point]"
COc1ccc(/C(O)=C(\C#N)c2nc3ccccc3n2C)cc1OC,69.8,"0.00461 µM [rising, full curve, poor fit]","6.51 µM [rising, single point]"
COc1ccc(NC(=S)N/N=C/c2ccc(F)cc2)cc1OC,,,"0.651 µM [falling, single point]"
Cn1c(=O)oc2cc(S(=O)(=O)CCC(=O)N3CCN(c4ccccc4F)CC3)ccc21,-4.28,,"7.31 µM [falling, single point]"
CC12C(=O)N(c3cccc4cccnc34)C(=O)C1C1C=CC2C1 (centres undefined),26.8,,"20.6 µM [rising, single point]"
O=C(Nc1ccc(Cc2ccncc2)cc1)c1ccc(Cl)c([N+](=O)[O-])c1,-11.4,,
CCC(=O)N1CC23C=CC(CC2CC12CCCCC2)O3 (centres undefined),-12.2,,
CO/N=C/C(=N\Nc1ccc(C)cc1)C(=O)c1ccc(OC)cc1,2,"1.64 µM [rising, partial curve]","0.731 µM [rising, full curve]"
O=C(NC(=S)Nc1ccc2oc(=O)ccc2c1)c1ccc(-c2cccc(Cl)c2Cl)o1,,"6.51 µM [rising, single point]",
Cc1cc(NCCCOC(C)C)n2c(nc3ccccc32)c1C#N,-16.1,,"0.82 µM [falling, full curve]"
CN(CC(=O)Nc1cccc(F)c1)C(=O)c1ccccc1Sc1ccccc1C#N,-26.6,,"20.6 µM [falling, single point]"
O=C(CN(C(=O)CCC(=O)Nc1nccs1)c1ccc(F)cc1)NCc1ccc(F)cc1,-14.1,,
COc1cc2[nH]c3c(=O)n(CCN(C(C)C)C(C)C)cnc3c2cc1OC,1.88,,"0.00461 µM [falling, full curve, poor fit]"
CCC(=O)N1CCCc2ccccc21,-10.5,,"23.1 µM [falling, single point]"
CC(NC(=O)C1CCC1)c1ccc(Br)cc1 (centres undefined),7.3,,"0.259 µM [rising, partial curve, poor fit]"
CCOc1ccc(NC(=O)CSc2ccc(-c3cccnc3)nn2)cc1,15,,"5.17 µM [rising, full curve]"
CCn1c(=O)c(C(=O)NNC(=O)Cc2ccccc2)c(O)c2ccccc21,,,"29.1 µM [rising, single point]"

# Copied from the list.
# `CC12C(=O)N(c3cccc4cccnc34)C(=O)C1C1C=CC2C1` (centres undefined) – AC50 [2]: 20.6 µM [rising, single point]
# `CCC(=O)N1CC23C=CC(CC2CC12CCCCC2)O3` (centres undefined) – cell number change [%]: -12.2
